From the supplement of paper PMC10849652
Some of the results follow.

Amino acid sequences for entries named in this document (tags omitted). A change or cut given only in a name is not applied to a line headed by its entry.
UniProt Q8N5J2: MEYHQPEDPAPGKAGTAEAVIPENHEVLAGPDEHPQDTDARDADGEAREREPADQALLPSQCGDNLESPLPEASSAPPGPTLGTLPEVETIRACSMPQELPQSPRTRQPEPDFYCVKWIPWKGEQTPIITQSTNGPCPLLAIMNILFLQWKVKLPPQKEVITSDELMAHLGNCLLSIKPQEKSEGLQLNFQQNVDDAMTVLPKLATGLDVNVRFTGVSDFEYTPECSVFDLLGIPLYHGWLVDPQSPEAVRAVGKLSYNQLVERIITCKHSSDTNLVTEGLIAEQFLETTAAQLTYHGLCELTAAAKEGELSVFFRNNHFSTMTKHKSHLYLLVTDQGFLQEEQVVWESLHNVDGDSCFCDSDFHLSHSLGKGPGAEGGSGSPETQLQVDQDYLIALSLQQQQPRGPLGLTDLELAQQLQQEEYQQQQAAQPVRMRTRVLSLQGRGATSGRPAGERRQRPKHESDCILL
UniProt Q6UWV2: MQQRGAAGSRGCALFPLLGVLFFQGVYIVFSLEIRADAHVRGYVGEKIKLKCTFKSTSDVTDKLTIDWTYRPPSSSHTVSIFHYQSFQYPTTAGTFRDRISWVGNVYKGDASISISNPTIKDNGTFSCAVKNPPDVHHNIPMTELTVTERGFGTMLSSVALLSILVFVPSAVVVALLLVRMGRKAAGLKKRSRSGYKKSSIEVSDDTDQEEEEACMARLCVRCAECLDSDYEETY
UniProt O96033: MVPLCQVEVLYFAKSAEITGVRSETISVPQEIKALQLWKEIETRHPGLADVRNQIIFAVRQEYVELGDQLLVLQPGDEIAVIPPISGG
UniProt P08473: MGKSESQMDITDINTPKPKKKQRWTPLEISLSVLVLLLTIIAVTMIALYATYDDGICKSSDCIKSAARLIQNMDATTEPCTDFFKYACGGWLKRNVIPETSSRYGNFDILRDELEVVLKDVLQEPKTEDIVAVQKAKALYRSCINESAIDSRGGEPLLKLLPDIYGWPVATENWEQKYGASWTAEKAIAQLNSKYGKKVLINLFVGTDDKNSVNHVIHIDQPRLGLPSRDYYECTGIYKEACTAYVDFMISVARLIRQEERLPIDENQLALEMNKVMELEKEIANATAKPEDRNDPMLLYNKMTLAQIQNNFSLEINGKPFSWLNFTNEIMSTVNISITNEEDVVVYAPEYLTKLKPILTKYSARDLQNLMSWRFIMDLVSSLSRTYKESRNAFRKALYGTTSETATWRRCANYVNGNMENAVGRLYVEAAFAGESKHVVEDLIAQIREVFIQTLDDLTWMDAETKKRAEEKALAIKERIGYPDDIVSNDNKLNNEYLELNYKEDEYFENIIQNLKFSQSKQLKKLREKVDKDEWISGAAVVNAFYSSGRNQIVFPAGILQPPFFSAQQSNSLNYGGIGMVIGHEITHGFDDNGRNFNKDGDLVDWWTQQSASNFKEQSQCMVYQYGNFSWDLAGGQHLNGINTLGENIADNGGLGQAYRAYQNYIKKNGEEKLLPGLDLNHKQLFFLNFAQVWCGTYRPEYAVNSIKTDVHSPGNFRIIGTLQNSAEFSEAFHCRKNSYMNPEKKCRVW
UniProt Q9Y5U8: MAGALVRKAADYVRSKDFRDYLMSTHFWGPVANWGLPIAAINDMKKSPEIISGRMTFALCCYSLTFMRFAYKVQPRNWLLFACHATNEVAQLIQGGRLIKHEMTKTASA
UniProt Q7Z6M3: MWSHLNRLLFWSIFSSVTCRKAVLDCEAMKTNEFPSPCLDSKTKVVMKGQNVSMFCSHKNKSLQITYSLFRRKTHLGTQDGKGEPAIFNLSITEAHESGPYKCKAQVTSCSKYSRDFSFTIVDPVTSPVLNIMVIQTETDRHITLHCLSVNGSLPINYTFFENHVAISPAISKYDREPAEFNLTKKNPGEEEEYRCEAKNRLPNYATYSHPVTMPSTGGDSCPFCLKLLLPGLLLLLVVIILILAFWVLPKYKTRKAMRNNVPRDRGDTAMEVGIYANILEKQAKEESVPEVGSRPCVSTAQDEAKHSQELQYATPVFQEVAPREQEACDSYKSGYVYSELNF
UniProt Q9NPJ1: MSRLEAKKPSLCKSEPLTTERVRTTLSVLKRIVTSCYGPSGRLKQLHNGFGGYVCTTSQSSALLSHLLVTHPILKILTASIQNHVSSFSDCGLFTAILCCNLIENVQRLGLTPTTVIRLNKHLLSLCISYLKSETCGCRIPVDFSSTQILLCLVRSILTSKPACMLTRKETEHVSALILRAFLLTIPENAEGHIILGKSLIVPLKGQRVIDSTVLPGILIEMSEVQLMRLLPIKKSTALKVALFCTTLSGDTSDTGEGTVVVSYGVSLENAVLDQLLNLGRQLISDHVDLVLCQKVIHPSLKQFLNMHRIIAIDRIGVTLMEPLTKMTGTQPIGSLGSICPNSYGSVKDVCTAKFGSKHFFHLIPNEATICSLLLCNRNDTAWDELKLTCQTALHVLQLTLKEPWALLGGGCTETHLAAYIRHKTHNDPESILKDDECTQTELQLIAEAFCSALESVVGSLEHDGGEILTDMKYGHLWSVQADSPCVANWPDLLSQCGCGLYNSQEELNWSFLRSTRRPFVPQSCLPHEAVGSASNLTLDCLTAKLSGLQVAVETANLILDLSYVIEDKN
UniProt Q9H8S9: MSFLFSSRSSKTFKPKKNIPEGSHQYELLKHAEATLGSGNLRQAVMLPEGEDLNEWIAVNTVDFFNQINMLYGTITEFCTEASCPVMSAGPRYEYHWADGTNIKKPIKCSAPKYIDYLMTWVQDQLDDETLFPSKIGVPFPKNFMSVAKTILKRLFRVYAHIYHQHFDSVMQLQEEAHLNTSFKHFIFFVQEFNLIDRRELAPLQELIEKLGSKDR
UniProt Q9UBG0: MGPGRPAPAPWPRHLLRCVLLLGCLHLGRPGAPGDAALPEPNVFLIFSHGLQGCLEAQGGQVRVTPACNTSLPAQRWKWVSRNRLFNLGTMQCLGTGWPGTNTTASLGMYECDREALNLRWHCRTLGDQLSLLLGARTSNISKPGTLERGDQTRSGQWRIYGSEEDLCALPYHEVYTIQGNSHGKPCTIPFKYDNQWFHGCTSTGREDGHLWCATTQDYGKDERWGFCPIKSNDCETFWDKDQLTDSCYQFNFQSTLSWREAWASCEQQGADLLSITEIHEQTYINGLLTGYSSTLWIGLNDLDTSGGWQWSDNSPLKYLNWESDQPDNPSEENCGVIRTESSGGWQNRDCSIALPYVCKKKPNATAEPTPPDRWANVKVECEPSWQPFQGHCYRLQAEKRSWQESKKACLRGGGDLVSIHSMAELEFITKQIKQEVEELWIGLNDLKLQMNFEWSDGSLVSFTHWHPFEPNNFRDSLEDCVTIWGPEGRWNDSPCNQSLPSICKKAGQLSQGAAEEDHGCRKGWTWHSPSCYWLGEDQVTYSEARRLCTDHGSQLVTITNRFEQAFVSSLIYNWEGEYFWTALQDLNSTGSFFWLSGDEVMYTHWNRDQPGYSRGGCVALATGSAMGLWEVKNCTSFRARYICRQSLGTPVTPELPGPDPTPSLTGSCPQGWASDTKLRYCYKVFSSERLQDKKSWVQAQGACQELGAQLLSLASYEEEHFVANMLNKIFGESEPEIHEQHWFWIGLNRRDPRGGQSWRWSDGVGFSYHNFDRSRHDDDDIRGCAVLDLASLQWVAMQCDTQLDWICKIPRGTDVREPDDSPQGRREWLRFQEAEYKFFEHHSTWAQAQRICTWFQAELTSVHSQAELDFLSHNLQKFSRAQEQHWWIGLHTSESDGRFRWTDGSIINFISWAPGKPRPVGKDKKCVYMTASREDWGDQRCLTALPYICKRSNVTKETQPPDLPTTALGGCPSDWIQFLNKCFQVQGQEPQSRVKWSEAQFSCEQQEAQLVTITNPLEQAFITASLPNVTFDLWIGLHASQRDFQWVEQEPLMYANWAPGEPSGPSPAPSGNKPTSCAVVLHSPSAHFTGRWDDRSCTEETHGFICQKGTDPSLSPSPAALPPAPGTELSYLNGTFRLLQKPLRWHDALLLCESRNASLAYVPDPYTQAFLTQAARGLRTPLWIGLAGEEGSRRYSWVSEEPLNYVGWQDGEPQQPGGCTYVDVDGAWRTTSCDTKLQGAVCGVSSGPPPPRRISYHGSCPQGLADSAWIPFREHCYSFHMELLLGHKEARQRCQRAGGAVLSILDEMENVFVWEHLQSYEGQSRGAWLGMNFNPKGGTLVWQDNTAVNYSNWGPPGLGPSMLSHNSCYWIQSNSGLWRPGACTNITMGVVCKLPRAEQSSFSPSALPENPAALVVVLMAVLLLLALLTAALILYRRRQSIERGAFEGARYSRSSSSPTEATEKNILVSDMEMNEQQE
UniProt Q96FF7: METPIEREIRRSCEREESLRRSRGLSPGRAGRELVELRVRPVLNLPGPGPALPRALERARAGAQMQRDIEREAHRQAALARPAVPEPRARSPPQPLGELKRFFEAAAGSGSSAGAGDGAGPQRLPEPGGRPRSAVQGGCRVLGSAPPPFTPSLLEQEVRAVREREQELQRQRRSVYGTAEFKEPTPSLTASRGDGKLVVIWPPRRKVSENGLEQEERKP
UniProt P16455, whole entry, looked up: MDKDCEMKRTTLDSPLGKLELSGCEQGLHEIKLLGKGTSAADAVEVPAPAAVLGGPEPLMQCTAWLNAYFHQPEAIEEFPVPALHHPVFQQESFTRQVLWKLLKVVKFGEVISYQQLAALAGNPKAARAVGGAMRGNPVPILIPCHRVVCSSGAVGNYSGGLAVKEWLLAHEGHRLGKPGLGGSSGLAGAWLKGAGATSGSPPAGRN
UniProt Q8N4V1: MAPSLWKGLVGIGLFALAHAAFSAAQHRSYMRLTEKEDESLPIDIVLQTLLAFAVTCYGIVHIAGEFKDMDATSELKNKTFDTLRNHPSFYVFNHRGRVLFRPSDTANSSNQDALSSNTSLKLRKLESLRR
UniProt Q4G0A6: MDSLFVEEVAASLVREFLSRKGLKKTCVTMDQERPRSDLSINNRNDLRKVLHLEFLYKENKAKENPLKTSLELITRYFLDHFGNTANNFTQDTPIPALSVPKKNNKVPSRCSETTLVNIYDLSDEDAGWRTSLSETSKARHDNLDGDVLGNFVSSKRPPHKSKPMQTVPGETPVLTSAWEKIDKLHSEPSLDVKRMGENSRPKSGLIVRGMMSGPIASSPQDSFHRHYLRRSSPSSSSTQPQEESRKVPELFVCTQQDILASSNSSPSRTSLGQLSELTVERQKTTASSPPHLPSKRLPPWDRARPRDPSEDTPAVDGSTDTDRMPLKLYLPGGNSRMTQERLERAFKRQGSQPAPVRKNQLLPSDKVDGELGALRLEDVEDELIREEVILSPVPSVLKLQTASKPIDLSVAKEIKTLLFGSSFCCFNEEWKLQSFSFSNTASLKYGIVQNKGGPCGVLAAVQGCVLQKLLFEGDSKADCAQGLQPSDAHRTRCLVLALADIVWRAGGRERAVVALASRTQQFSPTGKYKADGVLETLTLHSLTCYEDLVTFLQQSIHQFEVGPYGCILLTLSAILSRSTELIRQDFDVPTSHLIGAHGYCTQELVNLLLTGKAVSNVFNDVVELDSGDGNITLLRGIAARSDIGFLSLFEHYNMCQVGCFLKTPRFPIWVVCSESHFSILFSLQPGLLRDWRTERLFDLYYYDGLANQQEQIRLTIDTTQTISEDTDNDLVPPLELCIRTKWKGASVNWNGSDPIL
UniProt Q95460, whole entry, looked up: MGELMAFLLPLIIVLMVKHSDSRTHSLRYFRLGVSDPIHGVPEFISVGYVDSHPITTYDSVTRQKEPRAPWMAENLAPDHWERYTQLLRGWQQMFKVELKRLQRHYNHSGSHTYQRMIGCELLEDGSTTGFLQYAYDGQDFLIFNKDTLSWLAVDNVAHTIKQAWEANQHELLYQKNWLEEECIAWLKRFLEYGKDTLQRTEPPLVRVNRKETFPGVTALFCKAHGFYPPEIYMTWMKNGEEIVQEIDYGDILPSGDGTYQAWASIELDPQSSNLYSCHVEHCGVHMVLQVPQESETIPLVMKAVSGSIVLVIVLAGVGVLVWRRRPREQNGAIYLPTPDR
UniProt Q8NBR6: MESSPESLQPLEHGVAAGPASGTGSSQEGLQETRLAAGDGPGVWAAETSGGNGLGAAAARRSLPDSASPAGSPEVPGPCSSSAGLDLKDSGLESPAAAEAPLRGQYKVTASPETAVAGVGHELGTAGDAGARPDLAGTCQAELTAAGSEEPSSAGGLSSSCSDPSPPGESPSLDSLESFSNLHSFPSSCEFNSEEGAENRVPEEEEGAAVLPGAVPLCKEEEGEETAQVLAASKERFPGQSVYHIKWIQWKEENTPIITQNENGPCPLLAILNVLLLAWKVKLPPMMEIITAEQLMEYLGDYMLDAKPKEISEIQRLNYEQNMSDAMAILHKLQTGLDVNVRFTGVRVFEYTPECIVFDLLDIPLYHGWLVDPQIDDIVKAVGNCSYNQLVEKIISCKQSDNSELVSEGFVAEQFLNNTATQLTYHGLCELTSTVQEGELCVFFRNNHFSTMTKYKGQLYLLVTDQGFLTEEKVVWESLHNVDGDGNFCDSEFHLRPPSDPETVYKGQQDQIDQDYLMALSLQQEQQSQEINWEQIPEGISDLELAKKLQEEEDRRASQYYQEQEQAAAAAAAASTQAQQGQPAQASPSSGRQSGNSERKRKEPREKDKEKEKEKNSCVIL

Assays:
Assay in all cases: log2 fold change, soluble protein after heating vs DMSO (PISA); higher = thermal stabilisation; K562 lysate, 10 uM; active = over 0.2 and 3.5 SD of the protein, either way, in both replicates (recomputed)
[1] = compound: CN1CCc2c(c3ccccc3n2Cc2ccc(C(=O)NO)cc2)C1 [Tubastatin A]
How it was run: (§1)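 Following dounce homogenisation of K562 pellets in PBS pH 7.4 with 1 mM MgCl2, crude extract at 1 mg/mL protein was incubated for 30 min with 10 μM compound. Aliquots were then heated for 3 min over 48°C-58°C and pooled, NP-40 was added to 0.5% at 4°C, and soluble protein was recovered as the supernatant at 21,000xg for 90 min. Channel-sum-equalised TMTpro 16plex LC-MS/MS quantified this protein. Each value, from duplicates, is a log-two fold change in thermal stability relative to solvent controls.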

[2] = compound: CNC(=O)C1=CC=CC=C1NC2=NC(=NC=C2Cl)NC3=C(C=C(C=C3)N4CCOCC4)OC
How it was run: as §1

[3] = compound: CNC(=O)c1ccc(Nc2ncc(C(F)(F)F)c(NCc3nccnc3N(C)S(C)(=O)=O)n2)cc1 [defactinib]
How it was run: as §1

[4] = compound: CNc1nc(-c2ccc3c(N)n[nH]c3c2)cc(N2C[C@@H](C(=O)NC3CCCCC3)CC[C@H]2C)n1
How it was run: as §1

[5] = compound: COC(=O)N[C@@H](C)CNc1nccc(-c2cn(C(C)C)nc2-c2cc(Cl)cc(NS(C)(=O)=O)c2F)n1 [encorafenib]
How it was run: as §1

[6] = compound: COC(=O)[C@H](CCSC)NC(=O)C1=C(C=C(C=C1)NC[C@H](CS)N)C2=CC=CC=C2
How it was run: as §1

[7] = compound: COc1cc(Nc2ncc3c(n2)-c2ccc(Cl)cc2C(c2c(F)cccc2OC)=NC3)ccc1C(=O)O [alisertib]
How it was run: as §1

[8] = compound: COc1cc2nc(-c3cc(F)ccc3O)nc(N[C@@H]3CNC[C@H]3C(C)(C)O)c2cc1OC
How it was run: as §1

[9] = compound: COc1cc2ncnc(Nc3ccc(F)c(Cl)c3)c2cc1OCCCN1CCOCC1 [gefitinib]
How it was run: as §1

[10] = compound: CN1CC[C@H](c2c(O)cc(O)c3c(=O)cc(-c4ccccc4Cl)oc23)[C@H](O)C1 [alvocidib]
How it was run: as §1

Measured: log2 fold change

MINDY1 isoform 3 (UniProt Q8N5J2)
inactive: [1] 0.093 | [2] -0.031 | [3] 0.021 | [4] -0.054 | [5] 0.03 | [6] -0.053 | [7] 0.001 | [8] 0.103 | [9] 0.134

MPZL3 (UniProt Q6UWV2)
inactive: [1] -0.03

MPHOSPH9 (UniProt Q99550)
inactive: [10] -0.596 | [2] -0.06 | [3] 0.15 | [5] 0.179 | [6] -0.129

MGRN1 isoform 2 (UniProt O60291)
inactive: [10] -0.108 | [2] 0.026 | [3] -0.005 | [4] -0.038 | [5] 0.015 | [6] -0.03 | [8] 0.112

MRAS (UniProt O14807)
inactive: [10] 0.012 | [2] -0.051 | [3] -0.114 | [4] 0.012 | [5] -0.134 | [6] 0.062 | [7] -0.127 | [8] -0.072 | [9] 0.002

MOCS2 (UniProt O96033)
inactive: [1] 0.104 | [4] -0.023 | [8] 0.009

MME (UniProt P08473)
inactive: [10] -0.01 | [1] 0.081 | [2] 0.048 | [4] 0.142 | [7] -0.079 | [8] -0.018 | [9] 0.066

MPC1 (UniProt Q9Y5U8)
inactive: [10] 0.178 | [1] 0.055 | [2] 0 | [3] 0.05 | [4] 0.103 | [5] 0.019 | [6] 0.071 | [8] -0.006

MILR1 (UniProt Q7Z6M3)
inactive: [1] 0.126 | [2] -0.015 | [3] 0.162 | [5] 0.054 | [6] -0.122

MKKS (UniProt Q9NPJ1)
inactive: [10] -0.044 | [3] -0.032 | [4] 0.032 | [5] 0.126 | [6] -0.196

MLKL (UniProt Q8NB16)
inactive: [10] -0.02 | [1] -0.124 | [2] 0.088 | [5] 0.056 | [6] 0.048 | [7] 0.017 | [8] 0.015 | [9] 0.078

MICAL2 (UniProt O94851)
inactive: [10] -0.045 | [1] 0 | [2] 0.093 | [3] 0.012 | [4] 0 | [7] 0.072 | [8] 0.028 | [9] -0.053

MKNK2 (UniProt Q9HBH9)
inactive: [1] -0.011 | [2] 0.191 | [3] -0.069 | [4] -0.059 | [5] 0.199 | [6] -0.167 | [7] -0.322 | [9] -0.086

2 neighbouring records out of the list so far, for reference:
MLKL (UniProt Q8NB16)
inactive: [10] -0.02 | [1] -0.124 | [2] 0.088 | [5] 0.056 | [6] 0.048 | [7] 0.017 | [8] 0.015 | [9] 0.078

MICAL2 (UniProt O94851)
inactive: [10] -0.045 | [1] 0 | [2] 0.093 | [3] 0.012 | [4] 0 | [7] 0.072 | [8] 0.028 | [9] -0.053

The listing continues:

MRPL2 (UniProt Q5T653)
inactive: [10] -0.052 | [1] 0.047 | [2] -0.007 | [3] -0.125 | [4] 0.029 | [7] 0.043 | [8] -0.009 | [9] -0.047

MRPL18 (UniProt Q9H0U6)
inactive: [10] -0.093 | [1] -0.149 | [3] -0.02 | [4] -0.174 | [5] 0.001 | [6] 0.062 | [7] -0.06 | [8] -0.025 | [9] 0.067

MMACHC (UniProt Q9Y4U1)
inactive: [10] -0.058 | [1] -0.266 | [3] -0.052 | [4] -0.11 | [7] 0.089 | [9] -0.06

MOB1A (UniProt Q9H8S9)
inactive: [3] 0.063 | [5] -0.07 | [6] 0.019

MRPL22 (UniProt Q9NWU5)
inactive: [10] 0.018 | [1] -0.033 | [2] 0.036 | [7] -0.003 | [8] -0.052 | [9] -0.051

MRC2 (UniProt Q9UBG0)
inactive: [10] 0.04 | [2] -0.062 | [4] 0.05 | [5] 0.031 | [6] -0.301 | [7] -0.075 | [9] 0.046

MISP3 (UniProt Q96FF7)
inactive: [4] 0.036 | [7] -0.107 | [8] 0.14 | [9] 0.188

MIGA2 (UniProt Q7L4E1)
inactive: [1] 0.06 | [2] 0.132 | [4] 0.004 | [5] 0.366 | [6] 0.149

MRNIP (UniProt Q6NTE8)
inactive: [10] 0.081 | [1] -0.021 | [2] 0.035 | [4] -0.116 | [7] -0.019 | [8] -0.013 | [9] 0.047

MGMT (UniProt P16455)
inactive: [1] 0.262 | [4] 0.121

MIIP (UniProt Q5JXC2)
inactive: [1] -0.078 | [2] -0.258

MMGT1 (UniProt Q8N4V1)
inactive: [10] 0.041 | [1] -0.128 | [2] 0.048 | [4] 0 | [5] 0.079 | [6] -0.038 | [7] 0.015 | [8] -0.05 | [9] -0.025

MKRN3 (UniProt Q13064)
inactive: [10] 0.002 | [1] 0.059 | [2] 0.02 | [3] -0.106 | [4] 0.08 | [7] 0.117 | [8] 0.095 | [9] 0.023

MROH1 (UniProt Q8NDA8)
inactive: [10] -0.144 | [1] 0.046 | [4] -0.008 | [5] 0.065 | [6] 0.027

MLYCD (UniProt O95822)
inactive: [10] 0.012 | [1] -0.052 | [2] -0.005 | [4] 0.116 | [5] -0.029 | [6] 0.036 | [7] 0.02 | [8] 0.01 | [9] -0.017

MINDY4 (UniProt Q4G0A6)
inactive: [10] -0.023 | [1] -0.153 | [4] 0.084 | [7] -0.051 | [9] 0.007

MKKS (UniProt Q9HB66)
inactive: [1] 0.019 | [2] -0.028 | [3] 0.149 | [5] 0.015 | [6] -0.028 | [8] 0.089

MLF1 isoform 3 (UniProt P58340)
inactive: [10] -0.173 | [3] 0.02

MR1 (UniProt Q95460)
inactive: [2] 0.074 | [3] 0.047 | [4] -0.016 | [5] -0.055 | [6] -0.047

MINDY2 (UniProt Q8NBR6)
inactive: [10] -0.048 | [1] 0.003 | [5] 0.105 | [6] -0.053 | [7] -0.207 | [8] 0.111 | [9] 0.057

MRE11 (UniProt F8W7U8)
inactive: [8] 0.012

MIDEAS, A0A1C7CYX1
inactive: [1] -0.362 | [2] 0.035 | [4] -0.02 | [8] 0.031
